From paper PMC5800702 come the findings set out here.

Chains of the proteins cited; added tags and fusions are not shown. Lines headed by an entry give the natural chain unless they say otherwise; changes in a name come on top. A line that says so, or that is headed by a name, gives the form on record, which may keep a tag or linker.
VVD-V5 (Q9C3Y6, form named): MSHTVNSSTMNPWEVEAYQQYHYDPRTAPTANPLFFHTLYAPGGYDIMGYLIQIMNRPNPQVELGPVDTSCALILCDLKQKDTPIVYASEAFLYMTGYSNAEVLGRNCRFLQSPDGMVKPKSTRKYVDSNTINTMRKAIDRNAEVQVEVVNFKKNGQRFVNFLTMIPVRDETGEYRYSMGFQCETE
UniProt Q01371: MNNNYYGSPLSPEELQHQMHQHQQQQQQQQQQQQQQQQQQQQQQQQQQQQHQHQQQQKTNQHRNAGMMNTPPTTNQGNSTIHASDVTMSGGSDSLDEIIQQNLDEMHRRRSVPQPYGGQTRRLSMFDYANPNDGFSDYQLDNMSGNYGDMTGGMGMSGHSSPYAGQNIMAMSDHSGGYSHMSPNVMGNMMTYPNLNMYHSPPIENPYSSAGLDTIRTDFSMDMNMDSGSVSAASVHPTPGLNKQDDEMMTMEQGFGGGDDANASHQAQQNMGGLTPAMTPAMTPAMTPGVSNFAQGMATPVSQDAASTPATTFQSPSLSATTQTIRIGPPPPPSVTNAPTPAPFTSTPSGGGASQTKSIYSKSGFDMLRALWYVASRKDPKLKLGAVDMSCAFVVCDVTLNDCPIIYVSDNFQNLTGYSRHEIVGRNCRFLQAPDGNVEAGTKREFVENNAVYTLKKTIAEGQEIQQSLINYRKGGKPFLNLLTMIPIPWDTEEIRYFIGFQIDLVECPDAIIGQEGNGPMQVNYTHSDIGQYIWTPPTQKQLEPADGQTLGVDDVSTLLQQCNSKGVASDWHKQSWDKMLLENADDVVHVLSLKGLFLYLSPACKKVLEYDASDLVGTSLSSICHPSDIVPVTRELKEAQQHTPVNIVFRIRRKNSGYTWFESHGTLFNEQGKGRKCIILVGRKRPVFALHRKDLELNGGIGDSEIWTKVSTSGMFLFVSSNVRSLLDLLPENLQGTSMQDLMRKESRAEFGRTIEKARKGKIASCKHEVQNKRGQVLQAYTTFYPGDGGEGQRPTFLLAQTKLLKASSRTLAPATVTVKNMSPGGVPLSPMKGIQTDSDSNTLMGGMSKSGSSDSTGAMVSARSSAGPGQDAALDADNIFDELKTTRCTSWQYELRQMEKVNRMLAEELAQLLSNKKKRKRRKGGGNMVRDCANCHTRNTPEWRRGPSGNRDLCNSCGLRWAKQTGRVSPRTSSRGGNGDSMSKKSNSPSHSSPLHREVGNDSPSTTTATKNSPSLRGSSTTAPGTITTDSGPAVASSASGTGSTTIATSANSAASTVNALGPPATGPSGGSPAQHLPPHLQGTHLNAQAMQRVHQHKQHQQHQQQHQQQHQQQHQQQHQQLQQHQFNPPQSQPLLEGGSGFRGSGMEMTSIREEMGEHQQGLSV

These are yes or no findings as the source states them, for the method shown. In cells and extracts the contact can be indirect. Some entries that bind do so weakly or less than the wild type. For some assays here: Sequences can lack the tags named with a protein.

Experiment [1] concerns the target VVD-V5 (Neurospora crassa) (UniProt Q9C3Y6). The experiment is described as follows: co-IP; VVD-V5 precipitated with anti-V5 agarose beads at LP60min from vvd^V5 (2mg) and vvd^V5, Δcsp-6 (6mg) extracts; blot with WC-1 antibody; ras-1^bd as negative control.
Experiment [2] addresses T1, V5-tagged ADV-1 (Neurospora crassa) (UniProt Q9P326).
T1 sequence: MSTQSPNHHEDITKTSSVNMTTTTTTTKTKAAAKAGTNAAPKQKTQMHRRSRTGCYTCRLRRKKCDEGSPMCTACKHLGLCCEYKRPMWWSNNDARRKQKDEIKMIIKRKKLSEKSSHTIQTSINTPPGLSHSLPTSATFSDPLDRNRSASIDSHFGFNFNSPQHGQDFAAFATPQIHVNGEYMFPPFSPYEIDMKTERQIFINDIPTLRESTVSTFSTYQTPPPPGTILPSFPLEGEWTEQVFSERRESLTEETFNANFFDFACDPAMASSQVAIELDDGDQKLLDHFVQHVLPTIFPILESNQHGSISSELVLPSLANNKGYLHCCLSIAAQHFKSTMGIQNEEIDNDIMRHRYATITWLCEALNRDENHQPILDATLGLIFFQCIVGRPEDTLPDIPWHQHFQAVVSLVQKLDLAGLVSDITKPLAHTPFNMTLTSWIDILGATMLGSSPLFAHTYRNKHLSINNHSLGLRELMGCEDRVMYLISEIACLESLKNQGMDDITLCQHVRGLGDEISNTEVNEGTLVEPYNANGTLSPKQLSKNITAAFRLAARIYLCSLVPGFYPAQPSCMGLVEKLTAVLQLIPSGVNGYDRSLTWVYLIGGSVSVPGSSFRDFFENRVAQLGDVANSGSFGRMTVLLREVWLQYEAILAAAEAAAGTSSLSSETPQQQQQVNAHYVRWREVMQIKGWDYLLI
The experiment is described as follows: co-IP; DSP crosslinking, constant LL; V5-tagged ADV-1 precipitated with anti-V5 agarose beads from adv-1^V5 (2mg) and adv-1^V5, Δcsp-6 (6mg); WC-1 detected with anti-WC-1 antibody.

“White Collar-1 (from UniProt Q01371 1-1167)”: the binding entry in experiment [1] and in experiment [2] was “binds” each time.
